Results of single-concentration screens

Mtb glucose medium: 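Phenotypic screen: M. tuberculosis growth, glucose 7H9 medium, 3 days; the read-out is not stated. Tested at 50 µM. Higher reads as more growth inhibition (inferred: compounds with an IC50 in retests scored well above the rest). Of about 69,000 compounds tested this way, about 760 (1.1%) reached 50% or more in at least one test.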
Mtb cholesterol medium: 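Phenotypic screen: M. tuberculosis growth, cholesterol and DPPC medium, 4 days; the read-out is not stated. Tested at 50 µM. The record gives no direction; compounds that gave an IC50 in retests scored well above the rest, so higher reads as more growth inhibition. Of about 69,000 compounds tested this way, about 370 (0.54%) reached 50% or more in at least one test.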

Each number is a percent effect as filed. The record does not define 0% and 100%; most values in the screen are far below 50% and negative numbers occur (in some assays of this library far below -100). Compounds were drawn at random from those tested, without regard to their results. Two or more numbers in one place are separate tests of the same structure; such repeats can differ widely.

compound: Cc1noc(C)c1CNC(=O)N1CCC(NS(C)(=O)=O)CC1
Mtb glucose medium: -9.755%
Mtb cholesterol medium: 1.13% and 0.8263%

compound: Cc1cc(C(=O)N[C@H]2CC[C@@]3(CCC(=O)N3)CC2)no1
Mtb glucose medium: 16.3%
Mtb cholesterol medium: 20.96%

compound: Cc1nc(C)n(CC2CCCN(Cc3cccc4c3OCCO4)C2)n1 (stereo unspecified)
Mtb glucose medium: 19.49%
Mtb cholesterol medium: -29.52%

compound: Cc1cc(C)cc(C(=O)N2CCCC3(CCCC(=O)N3C)C2)c1 (stereo unspecified)
Mtb glucose medium: -17.37%
Mtb cholesterol medium: -13.4% and -4.093%

compound: c1csc(-c2nc(CN3CCOC(Cn4cncn4)C3)co2)c1 (stereo unspecified)
Mtb glucose medium: -23.08%
Mtb cholesterol medium: -6.245%

compound: Cc1cnn(CC2CCN(c3cc(C(C)C)nc4ccnn34)CC2)c1
Mtb glucose medium: 19.46%
Mtb cholesterol medium: 14.47%

compound: Cc1noc(CSc2ccc(C(F)(F)F)cn2)n1
Mtb glucose medium: 1.667% and -22.77%
Mtb cholesterol medium: -6.131%

compound: CN(Cc1ccccn1)C(=O)c1ccc2c(c1O)OC(C)(C)C2
Mtb glucose medium: -44.57% and -3.783%
Mtb cholesterol medium: -27.3%

compound: CC(C)CS(=O)(=O)CC(=O)NC(C)c1nnc2n1CCC2 (stereo unspecified)
Mtb glucose medium: 1.984%
Mtb cholesterol medium: 4.063%

compound: CCn1cc(CN2CCC(N3CCC(O)CC3)CC2)cc1C#N
Mtb glucose medium: -20.69%
Mtb cholesterol medium: -22.16%

compound: Cc1nn(CCC(=O)NC(C(=O)O)c2c(C)n[nH]c2C)c(C)c1C (stereo unspecified)
Mtb glucose medium: 22.71% and -1.015%
Mtb cholesterol medium: 16.09%

compound: Cn1ccc(CN2CCCC23CCN(Cc2nccn2C)CC3)n1.O=C(O)C(F)(F)F.O=C(O)C(F)(F)F
Mtb glucose medium: -6.124%
Mtb cholesterol medium: -15.28%

compound: O=C(Nc1ccccc1)N1CCC(N2Cc3ncccc3C2=O)CC1
Mtb glucose medium: 2.917%
Mtb cholesterol medium: 10.38%

compound: Cc1ccc2ncn(CC(O)CN3CCC(C)CC3)c(=O)c2c1 (stereo unspecified)
Mtb glucose medium: -45.64%
Mtb cholesterol medium: 19.09%

compound: O=C(O)C(F)(F)F.O=C(O)C(F)(F)F.c1ccc(OCc2n[nH]c3c2CN(Cc2cccs2)C3)nc1
Mtb glucose medium: -2.902% and 9.139%
Mtb cholesterol medium: 16.1%

compound: N#Cc1ccc(C(=O)NCC2(N3CCOCC3)CCCC2)nc1
Mtb glucose medium: 10.47%
Mtb cholesterol medium: -2.856%

compound: [H][C@]12C[C@H](CN(C)C)O[C@@]1([H])CN(C(=O)c1ccco1)C2
Mtb glucose medium: -17.76% and -3.769%
Mtb cholesterol medium: -8.985%

compound: N#CC1(NC(=O)c2nccc3ccccc23)CCC1
Mtb glucose medium: -56.14% and -0.6023%
Mtb cholesterol medium: -24.66%

compound: CCCOCCn1ncc(N2CCc3ccccc3C2)cc1=O
Mtb glucose medium: -17.23%
Mtb cholesterol medium: 6.414%

compound: CCc1ncc2c(n1)CN(CC(=O)Nc1ccncc1)CC2
Mtb glucose medium: -23.58%
Mtb cholesterol medium: -15.09%

compound: O=C(O)C(F)(F)F.O=S(=O)(c1cccs1)N1CC[C@H](O)[C@@H]1Cc1ccncc1
Mtb glucose medium: 6.014%
Mtb cholesterol medium: -6.808%

compound: Cc1cnn(CC2CCCN2Cc2coc(-c3ccccc3)n2)c1 (stereo unspecified)
Mtb glucose medium: 37.88% and 35.29%
Mtb cholesterol medium: 6.689%

compound: CC(c1ccco1)N(C(=O)NCc1ccon1)C1CC1 (stereo unspecified)
Mtb glucose medium: -17.01%
Mtb cholesterol medium: 4.098%

compound: CC(=O)Nc1cc(C(C)(C)C)sc1C#N
Mtb glucose medium: 11.52%
Mtb cholesterol medium: -3.29% and -12.48%

compound: CC(C)(C)c1n[nH]c(C2CN(C(=O)c3cc(Cl)c[nH]3)CCO2)n1 (stereo unspecified)
Mtb glucose medium: 15.03% and 1.474%
Mtb cholesterol medium: -1.234%

compound: CN(C)S(=O)(=O)N(C)C(c1cccc(F)c1)c1ccccn1 (stereo unspecified)
Mtb glucose medium: -12.49%
Mtb cholesterol medium: -13.66%

compound: Cc1ccc(CNC2CCCc3c2cnn3Cc2ccccc2)s1.Cl (stereo unspecified)
Mtb glucose medium: 44.31%
Mtb cholesterol medium: 34.76%

compound: CC1COc2ccccc2N1C(=O)c1ccnc(-n2cncn2)c1 (stereo unspecified)
Mtb glucose medium: 7.389% and 25.09%
Mtb cholesterol medium: -12.83%

compound: COCc1nc(CN2C(=O)OC[C@@H]2C(C)C)no1
Mtb glucose medium: 2.386% and 6.967%
Mtb cholesterol medium: 9.158%

compound: Cc1cc(N(C)CC2COc3ccccc3O2)nc(N)n1 (stereo unspecified)
Mtb glucose medium: 7.97% and 20.58%
Mtb cholesterol medium: 0.1018%

compound: [H][C@@]12CCN(C(=O)c3cc(C)on3)C[C@@]1([H])O[C@H](c1nc(C)cs1)C2
Mtb glucose medium: 32.06%
Mtb cholesterol medium: 0.9851%

compound: CN(C)CCN(C)C[C@@H]1CN(C(=O)NC2CCCC2)C[C@@H]1CO
Mtb glucose medium: -11.63%
Mtb cholesterol medium: 12.39%

compound: Cc1cccc(OC2CCN(c3nccnc3C#N)CC2)n1
Mtb glucose medium: 20.84%
Mtb cholesterol medium: 17.62% and 13.03%

compound: CN(C)C(=O)COCC1CN(S(C)(=O)=O)Cc2ncn(C)c21.O=C(O)C(F)(F)F (stereo unspecified)
Mtb glucose medium: 13.83%
Mtb cholesterol medium: -7.156%

compound: CCc1nnc2n1CCN(C(=O)c1cc(C)n(-c3ccccc3)c1C)C2
Mtb glucose medium: 9.103%
Mtb cholesterol medium: 0.006894%

compound: CC(C)n1ncc2c1NC(=O)CC21C(=O)Nc2c(Br)cc(Cl)cc21 (stereo unspecified)
Mtb glucose medium: 10.39%
Mtb cholesterol medium: -1.219%

compound: OCC1CCCN1c1cc(NCCc2nccs2)ncn1 (stereo unspecified)
Mtb glucose medium: 4.884%
Mtb cholesterol medium: 11.31%

compound: Cc1nc(C)n(CC2CCCCN2CCCS(C)(=O)=O)n1 (stereo unspecified)
Mtb glucose medium: -36.19%
Mtb cholesterol medium: 2.047% and -4.139%

compound: CN(C)C(=O)N1CCN(c2ccc3ccc(C(=O)NC4CC4)cn23)CC1
Mtb glucose medium: -3.938%
Mtb cholesterol medium: -4.639%

compound: Cc1ccsc1C(=O)NCCCn1nc2ccccn2c1=O
Mtb glucose medium: -13.16%
Mtb cholesterol medium: -1.811%

2 of the entries, repeated:

Result for CN(C)CCN(C)C[C@@H]1CN(C(=O)NC2CCCC2)C[C@@H]1CO was Mtb glucose medium: -11.63%; Mtb cholesterol medium: 12.39%.
Result for CCc1ncc2c(n1)CN(CC(=O)Nc1ccncc1)CC2 was Mtb glucose medium: -23.58%; Mtb cholesterol medium: -15.09%.

From ChEMBL document CHEMBL3988442, “University of Dundee, Small-Polar-MMV Screening Library” (2021).